# The supplement of paper PMC8728848
# The other results are listed elsewhere or left out.
# B1: OS9-MRH (Homo sapiens), Q13438 (protein)
# chain: IPELLSPMRDAPCLLKTKDWWTYEFCYGRHIQQYHMEDSEIKGEVLYLGYYQSAFDWDDETAKASKQHRLKRYHSQTYGNGSKCDLNGRPREAEVRFLCDEGAGISGDYIDRVDEPLSCSYVLTIRTPRLCPHPLLRPPPSAAPQAI
# Key:
# Assay in all cases: glycan array binding signal (z-score within array); higher = stronger binding
# Settings in all cases: glycan notation: IUPAC condensed, linker removed
# [1] = molecular target: Neu5Ac(a2-3)Gal
# Summary of the method: (§1)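 Columns mapping to the same glycan were averaged after glycan names were converted to IUPAC-condensed notation. The data come from 3228 arrays in the Consortium for Functional Glycomics database, limited to those with an available protein sequence. Binding is reported as a within-array Z-score averaged across arrays of one protein sequence and across linkers.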
# [2] = molecular target: Neu5Ac(a2-3)Gal(b1-3)GalNAc
# Summary of the method: as §1
# [3] = molecular target: Neu5Ac(a2-3)Gal(b1-3)GalNAc(b1-3)Gal(a1-4)Gal(b1-4)Glc
# Summary of the method: as §1
# [4] = molecular target: Neu5Ac(a2-3)Gal(b1-3)GalNAc(b1-4)Gal(b1-4)Glc
# Summary of the method: as §1
# [5] = molecular target: Neu5Ac(a2-3)Gal(b1-3)GalNAc(b1-4)[Neu5Ac(a2-3)]Gal(b1-4)Glc
# Summary of the method: as §1
# [6] = molecular target: Neu5Ac(a2-3)Gal(b1-3)GalNAc(b1-4)[Neu5Ac(a2-8)Neu5Ac(a2-3)]Gal(b1-4)Glc
# Summary of the method: as §1
# [7] = molecular target: Neu5Ac(a2-3)Gal(b1-3)GalNAc6S
# Summary of the method: as §1
# [8] = molecular target: Neu5Ac(a2-3)Gal(b1-3)GlcNAc
# Summary of the method: as §1
# [9] = molecular target: Neu5Ac(a2-3)Gal(b1-3)GlcNAc(b1-2)Man
# Summary of the method: as §1
# [10] = molecular target: Neu5Ac(a2-3)Gal(b1-3)GlcNAc(b1-2)Man(a1-3)[GlcNAc(b1-4)][Neu5Ac(a2-3)Gal(b1-3)GlcNAc(b1-2)Man(a1-6)]Man(b1-4)GlcNAc(b1-4)GlcNAc
# Summary of the method: as §1
# [11] = molecular target: Neu5Ac(a2-3)Gal(b1-3)GlcNAc(b1-2)Man(a1-3)[Neu5Ac(a2-3)Gal(b1-3)GlcNAc(b1-2)Man(a1-6)]Man(b1-4)GlcNAc(b1-4)GlcNAc
# Summary of the method: as §1
# [12] = molecular target: Neu5Ac(a2-3)Gal(b1-3)GlcNAc(b1-2)[Neu5Ac(a2-3)Gal(b1-3)GlcNAc(b1-4)]Man(a1-6)[Neu5Ac(a2-3)Gal(b1-3)GlcNAc(b1-2)Man(a1-3)]Man(b1-4)GlcNAc(b1-4)GlcNAc
# Summary of the method: as §1
# [13] = molecular target: Neu5Ac(a2-3)Gal(b1-3)GlcNAc(b1-3)Gal(b1-3)GlcNAc
# Summary of the method: as §1
# [14] = molecular target: Neu5Ac(a2-3)Gal(b1-3)GlcNAc(b1-3)Gal(b1-4)GlcNAc
# Summary of the method: as §1
# [15] = molecular target: Neu5Ac(a2-3)Gal(b1-3)GlcNAc(b1-3)GalNAc
# Summary of the method: as §1
# [16] = molecular target: Neu5Ac(a2-3)Gal(b1-3)GlcNAc(b1-6)GalNAc
# Summary of the method: as §1
# [17] = molecular target: Neu5Ac(a2-3)Gal(b1-3)GlcNAc6S
# Summary of the method: as §1
# [18] = molecular target: Neu5Ac(a2-3)Gal(b1-3)[Fuc(a1-4)]GlcNAc
# Summary of the method: as §1
# [19] = molecular target: Neu5Ac(a2-3)Gal(b1-3)[Fuc(a1-4)]GlcNAc(b1-3)Gal(b1-3)[Fuc(a1-4)]GlcNAc
# Summary of the method: as §1
# [20] = molecular target: Neu5Ac(a2-3)Gal(b1-3)[Fuc(a1-4)]GlcNAc(b1-3)Gal(b1-4)[Fuc(a1-3)]GlcNAc
# Summary of the method: as §1
# [21] = molecular target: Neu5Ac(a2-3)Gal(b1-3)[GlcNAc(b1-6)]GalNAc
# Summary of the method: as §1
# [22] = molecular target: Neu5Ac(a2-3)Gal(b1-3)[Neu5Ac(a2-6)]GalNAc
# Summary of the method: as §1
# [23] = molecular target: Neu5Ac(a2-3)Gal(b1-3)[Neu5Ac(a2-6)]GlcNAc(b1-3)[Fuc(a1-3)[Gal(b1-4)]GlcNAc(b1-6)]Gal(b1-4)Glc
# Summary of the method: as §1
# [24] = molecular target: Neu5Ac(a2-3)Gal(b1-3)]Neu5Ac(a2-3)Gal(b1-4)]GlcNAc
# Summary of the method: as §1
# [25] = molecular target: Neu5Ac(a2-3)Gal(b1-4)Glc
# Summary of the method: as §1
# [26] = molecular target: Neu5Ac(a2-3)Gal(b1-4)GlcNAc
# Summary of the method: as §1
# [27] = molecular target: Neu5Ac(a2-3)Gal(b1-4)GlcNAc(b1-2)Man
# Summary of the method: as §1
# [28] = molecular target: Neu5Ac(a2-3)Gal(b1-4)GlcNAc(b1-2)Man(a1-3)[GlcNAc(b1-4)][Neu5Ac(a2-3)Gal(b1-4)GlcNAc(b1-2)Man(a1-6)]Man(b1-4)GlcNAc(b1-4)GlcNAc
# Summary of the method: as §1
# [29] = molecular target: Neu5Ac(a2-3)Gal(b1-4)GlcNAc(b1-2)Man(a1-3)[Neu5Ac(a2-3)Gal(b1-4)GlcNAc(b1-2)Man(a1-6)]Man(b1-4)GlcNAc(b1-4)GlcNAc
# Summary of the method: as §1
# [30] = molecular target: Neu5Ac(a2-3)Gal(b1-4)GlcNAc(b1-2)Man(a1-3)[Neu5Ac(a2-3)Gal(b1-4)GlcNAc(b1-2)Man(a1-6)]Man(b1-4)GlcNAc(b1-4)[Fuc(a1-6)]GlcNAc
# Summary of the method: as §1
# [31] = molecular target: Neu5Ac(a2-3)Gal(b1-4)GlcNAc(b1-2)Man(a1-3)[Neu5Ac(a2-6)Gal(b1-4)GlcNAc(b1-2)Man(a1-6)]Man(b1-4)GlcNAc(b1-4)GlcNAc
# Summary of the method: as §1
# [32] = molecular target: Neu5Ac(a2-3)Gal(b1-4)GlcNAc(b1-2)[Neu5Ac(a2-3)Gal(b1-4)GlcNAc(b1-4)]Man(a1-3)[GlcNAc(b1-4)][Neu5Ac(a2-3)Gal(b1-4)GlcNAc(b1-2)[Neu5Ac(a2-3)Gal(b1-4)GlcNAc(b1-6)]Man(a1-6)]Man(b1-4)GlcNAc(b1-4)GlcNAc
# Summary of the method: as §1
# [33] = molecular target: Neu5Ac(a2-3)Gal(b1-4)GlcNAc(b1-2)[Neu5Ac(a2-3)Gal(b1-4)GlcNAc(b1-4)]Man(a1-3)[GlcNAc(b1-4)][Neu5Ac(a2-3)Gal(b1-4)GlcNAc(b1-4)Man(a1-6)]Man(b1-4)GlcNAc(b1-4)GlcNAc
# Summary of the method: as §1
# [34] = molecular target: Neu5Ac(a2-3)Gal(b1-4)GlcNAc(b1-2)[Neu5Ac(a2-3)Gal(b1-4)GlcNAc(b1-6)]Man(a1-6)[Neu5Ac(a2-3)Gal(b1-4)GlcNAc(b1-2)Man(a1-3)][GlcNAc(b1-4)]Man(b1-4)GlcNAc(b1-4)GlcNAc
# Summary of the method: as §1
# [35] = molecular target: Neu5Ac(a2-3)Gal(b1-4)GlcNAc(b1-3)Gal
# Summary of the method: as §1
# [36] = molecular target: Neu5Ac(a2-3)Gal(b1-4)GlcNAc(b1-3)Gal(b1-3)GlcNAc
# Summary of the method: as §1
# [37] = molecular target: Neu5Ac(a2-3)Gal(b1-4)GlcNAc(b1-3)Gal(b1-4)GlcNAc
# Summary of the method: as §1
# [38] = molecular target: Neu5Ac(a2-3)Gal(b1-4)GlcNAc(b1-3)Gal(b1-4)GlcNAc(b1-2)Man(a1-3)[Neu5Ac(a2-3)Gal(b1-4)GlcNAc(b1-3)Gal(b1-4)GlcNAc(b1-2)Man(a1-6)]Man(b1-4)GlcNAc(b1-4)GlcNAc
# Summary of the method: as §1
# [39] = molecular target: Neu5Ac(a2-3)Gal(b1-4)GlcNAc(b1-3)Gal(b1-4)GlcNAc(b1-3)Gal(b1-4)GlcNAc
# Summary of the method: as §1
# [40] = molecular target: Neu5Ac(a2-3)Gal(b1-4)GlcNAc(b1-3)Gal(b1-4)GlcNAc(b1-3)Gal(b1-4)GlcNAc(b1-2)Man(a1-3)[Neu5Ac(a2-3)Gal(b1-4)GlcNAc(b1-3)Gal(b1-4)GlcNAc(b1-3)Gal(b1-4)GlcNAc(b1-2)Man(a1-6)]GalNAc
# Summary of the method: as §1
# [41] = molecular target: Neu5Ac(a2-3)Gal(b1-4)GlcNAc(b1-3)Gal(b1-4)GlcNAc(b1-3)GalNAc
# Summary of the method: as §1
# [42] = molecular target: Neu5Ac(a2-3)Gal(b1-4)GlcNAc(b1-3)Gal(b1-4)GlcNAc(b1-3)[Neu5Ac(a2-3)Gal(b1-4)GlcNAc(b1-3)Gal(b1-4)GlcNAc(b1-6)]GalNAc
# Summary of the method: as §1
# [43] = molecular target: Neu5Ac(a2-3)Gal(b1-4)GlcNAc(b1-3)Gal(b1-4)GlcNAc(b1-6)[Gal(b1-3)]GalNAc
# Summary of the method: as §1
# [44] = molecular target: Neu5Ac(a2-3)Gal(b1-4)GlcNAc(b1-3)Gal(b1-4)[Fuc(a1-3)]GlcNAc
# Summary of the method: as §1
# [45] = molecular target: Neu5Ac(a2-3)Gal(b1-4)GlcNAc(b1-3)GalNAc
# Summary of the method: as §1
binder,measurement,setting,value
B1,glycan array binding signal (z-score),[1],-0.905
same,glycan array binding signal (z-score),[2],0.336
same,glycan array binding signal (z-score),[3],0.348
same,glycan array binding signal (z-score),[4],0.484
same,glycan array binding signal (z-score),[5],-0.741
same,glycan array binding signal (z-score),[6],-0.974
same,glycan array binding signal (z-score),[7],0.458
same,glycan array binding signal (z-score),[8],0.365
same,glycan array binding signal (z-score),[9],0.732
same,glycan array binding signal (z-score),[10],-1.14
same,glycan array binding signal (z-score),[11],-0.126
same,glycan array binding signal (z-score),[12],-0.384
same,glycan array binding signal (z-score),[13],-0.627
same,glycan array binding signal (z-score),[14],0.383
same,glycan array binding signal (z-score),[15],-0.634
same,glycan array binding signal (z-score),[16],-0.755
same,glycan array binding signal (z-score),[17],-0.543
same,glycan array binding signal (z-score),[18],0.861
same,glycan array binding signal (z-score),[19],0.54
same,glycan array binding signal (z-score),[20],0.737
same,glycan array binding signal (z-score),[21],1.34
same,glycan array binding signal (z-score),[22],0.248
same,glycan array binding signal (z-score),[23],-0.321
same,glycan array binding signal (z-score),[24],1.16
same,glycan array binding signal (z-score),[25],-0.307
same,glycan array binding signal (z-score),[26],-0.978
same,glycan array binding signal (z-score),[27],-1.27
same,glycan array binding signal (z-score),[28],-2.15
same,glycan array binding signal (z-score),[29],0.453
same,glycan array binding signal (z-score),[30],0.192
same,glycan array binding signal (z-score),[31],-0.346
same,glycan array binding signal (z-score),[32],-0.218
same,glycan array binding signal (z-score),[33],0.322
same,glycan array binding signal (z-score),[34],-0.089
same,glycan array binding signal (z-score),[35],0.293
same,glycan array binding signal (z-score),[36],-0.607
same,glycan array binding signal (z-score),[37],-1.25
same,glycan array binding signal (z-score),[38],0.816
same,glycan array binding signal (z-score),[39],-0.435
same,glycan array binding signal (z-score),[40],-0.519
same,glycan array binding signal (z-score),[41],-0.111
same,glycan array binding signal (z-score),[42],0.661
same,glycan array binding signal (z-score),[43],-0.547
same,glycan array binding signal (z-score),[44],1.27
same,glycan array binding signal (z-score),[45],-0.031

# Rewritten as tab-separated lines: part of the list above.
binder	measurement	setting	value
B1	glycan array binding signal (z-score)	[25]	-0.307
same	glycan array binding signal (z-score)	[26]	-0.978
same	glycan array binding signal (z-score)	[27]	-1.27
